Test: general procedure: Fmoc solid-phase peptide synthesis; Rink amide 4-methylbenzhydrylamine resin; HATU
Settings: whole synthesis

Substance: AAZTA^5-Pip-D-Phe-Gln-Trp-Ala-Val-Gly-His-Sta-Leu-NH2
- isolated yield: 30 to 40%
- final HPLC purity (HPLC and mass spectroscopy): > 95%

Reference: article PMC7704979 (EJNMMI Radiopharmacy and Chemistry, 2020)
